Values from PubChem BioAssay AID1671195 (Yale University, 2021).

Aim: 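Knockdowns that increase or decrease uptake of fluorescent LDL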 (primary screen)
System: human Huh7 hepatoma cells
Knock-down reagent: siRNA pool against human genes, 18 nM
Timing: about 2 to 2.5 days of knockdown, then 8 h LDL uptake
Conditions: DiI-labelled LDL at 30 µg/ml for 8 h, in lipoprotein-deficient serum medium
Measured: 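Fluorescent LDL signal imaged in cells, scaled to the plate median, robust z-score for each replicate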
Direction: robust z-score: higher = more LDL uptake after knockdown
Hit rule: 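Active when two or more replicates show a robust z-score above 2 or below -2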
In all, the deposit lists about 22,000 reagents; this is a part drawn at random. In the full data, about 1,510 (6.9%) are marked active. 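Active includes knockdowns raising or lowering LDL uptake; positive z-scores mean more uptake, negative mean less.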

Gene | PubChem SID | robust z-score, replicate 1 | robust z-score, replicate 2 | robust z-score, replicate 3 | Outcome
UXS1 (UDP-glucuronate decarboxylase 1) | SID442885496 | 1.31 | 1.72 | 1.44 | inactive
LOC441593 (retired record) | SID442893210 | 0.699 | -0.469 | -0.00116 | inactive
LRATD2 (LRAT domain containing 2) | SID442894880 | -0.192 | 0.212 | -0.349 | inactive
TRIM51 (tripartite motif-containing 51) | SID442899647 | -1.26 | -0.511 | -0.181 | inactive
DUX4L1 (double homeobox 4 like 1 (pseudogene)) | SID442891954 | -0.333 | 0.842 | 0.169 | inactive
CCNL1 (cyclin L1) | SID442896682 | -0.174 | 0.0536 | -0.78 | inactive
PRKN (parkin RBR E3 ubiquitin protein ligase) | SID442884155 | 1.22 | 2.31 | 2.08 | active
BEAN1 (brain expressed associated with NEDD4 1) | SID442892683 | 0.256 | 0.115 | 0.0394 | inactive
POLR1D (RNA polymerase I and III subunit D) | SID442901195 | -0.815 | -1.14 | -0.636 | inactive
POLR1D (RNA polymerase I and III subunit D) | SID442902957 | -1.01 | -1.48 | -1.07 | inactive
SLC35G2 | SID442891965 | 0.489 | 0.0684 | 0.117 | inactive
HTR2B (5-hydroxytryptamine receptor 2B) | SID442888498 | 0.522 | 0.883 | 0.721 | inactive
TRIM50 (tripartite motif containing 50) | SID442901360 | -1.4 | -0.871 | -0.394 | inactive
PRKAR2B | SID442900304 | -0.628 | -0.89 | -0.713 | inactive
LOC391030 (retired record) | SID442898214 | -0.497 | -0.581 | -0.343 | inactive
DCAF12L1 (DDB1 and CUL4 associated factor 12 like 1) | SID442901536 | -1.47 | -0.647 | -0.629 | inactive
FSCB (fibrous sheath CABYR binding protein) | SID442900819 | -1.02 | -0.828 | -0.588 | inactive
MRPL43 (mitochondrial ribosomal protein L43) | SID442889960 | 0.455 | 0.779 | 0.212 | inactive
LOC285444 (retired record) | SID442890416 | 0.341 | 0.393 | 0.525 | inactive
FUCA1 (alpha-L-fucosidase 1) | SID442891817 | 0.264 | 0.249 | 0.212 | inactive
SLC6A20 | SID442887374 | 0.929 | 1.57 | 0.278 | inactive
NPDC1 (neural proliferation, differentiation and control 1) | SID442904486 | -1.72 | -1.68 | -1.59 | inactive
SLC8B1 | SID442899395 | -0.416 | -1.03 | -0.401 | inactive
GADD45G (growth arrest and DNA damage inducible gamma) | SID442896228 | 0.0978 | -0.0454 | -0.804 | inactive
PDE8B (phosphodiesterase 8B) | SID442885105 | 2.49 | 1.35 | 1.2 | inactive
ZNF770 (zinc finger protein 770) | SID442899431 | -0.22 | -0.192 | -1.45 | inactive
ENGASE (endo-beta-N-acetylglucosaminidase) | SID442899804 | -0.793 | -0.612 | -0.61 | inactive
OR1Q1 (olfactory receptor family 1 subfamily Q member 1) | SID442888128 | 0.562 | 0.793 | 0.982 | inactive
PSORS1C2 (psoriasis susceptibility 1 candidate 2) | SID442886066 | 1.41 | 1.34 | 1.09 | inactive
PCDHGA8 (protocadherin gamma subfamily A, 8) | SID442896428 | -0.406 | -0.212 | -0.199 | inactive
CYP21A2 (cytochrome P450 family 21 subfamily A member 2) | SID442894810 | 0.012 | 0.156 | -0.475 | inactive
MAGEC1 (MAGE family member C1) | SID442899155 | -1.83 | -1.31 | 1.38 | inactive
TACC2 (transforming acidic coiled-coil containing protein 2) | SID442898789 | -0.0372 | -0.609 | -0.968 | inactive
SH3PXD2A (SH3 and PX domains 2A) | SID442892581 | -0.325 | -0.499 | 1.27 | inactive
CHI3L2 (chitinase 3 like 2) | SID442884235 | -1.17 | 2.95 | 2.32 | active
LOC440782 (retired record) | SID442894581 | 0.0401 | -0.337 | 0.064 | inactive
KCNK1 (potassium two pore domain channel subfamily K member 1) | SID442896797 | -0.594 | -0.411 | 0.0636 | inactive
C1orf87 (chromosome 1 open reading frame 87) | SID442891521 | 0.118 | -0.171 | 0.882 | inactive
SLC25A12 | SID442896461 | -0.376 | -0.313 | -0.139 | inactive
RETREG3 (reticulophagy regulator family member 3) | SID442894613 | -0.614 | 0.574 | -0.207 | inactive
TMEM184A (transmembrane protein 184A) | SID442901245 | -0.55 | -1.03 | -1.03 | inactive
MORN5 (MORN repeat containing 5) | SID442888471 | 0.855 | 0.589 | 0.697 | inactive
ZNF529 (zinc finger protein 529) | SID442886790 | 1.82 | 1.34 | 0.0268 | inactive
RPS17P6 (ribosomal protein S17 pseudogene 6) | SID442890322 | -0.862 | 1.24 | 0.919 | inactive
LENG9 (leukocyte receptor cluster member 9) | SID442885414 | 1.15 | 1.35 | 2.06 | inactive
MRPL11 (mitochondrial ribosomal protein L11) | SID442891956 | 0.37 | 0.145 | 0.162 | inactive
ANKRD33 (ankyrin repeat domain 33) | SID442900172 | -0.699 | -0.658 | -0.813 | inactive
NBPF13P (NBPF member 13, pseudogene) | SID442896946 | -0.334 | -0.45 | -0.204 | inactive
UQCRB (ubiquinol-cytochrome c reductase binding protein) | SID442888223 | 0.813 | 0.225 | 1.25 | inactive
NRDE2 (NRDE-2, necessary for RNA interference, domain containing) | SID442891294 | -0.00922 | -1.02 | 1.94 | inactive
GK (glycerol kinase) | SID442887202 | 0.835 | 0.696 | 1.35 | inactive
LOC440761 (retired record) | SID442886762 | 1.55 | 0.82 | 0.838 | inactive
FBXW5 (F-box and WD repeat domain containing 5) | SID442901926 | -1.57 | -0.553 | -0.825 | inactive
HIKESHI (heat shock protein nuclear import factor hikeshi) | SID442884071 | 1.91 | 3.08 | 1.04 | active
KCNMB1 | SID442888621 | 0.741 | 1.03 | 0.299 | inactive
RASSF3 (Ras association domain family member 3) | SID442901332 | -1.01 | -0.714 | -0.932 | inactive
NR3C1 (nuclear receptor subfamily 3 group C member 1) | SID442896337 | -0.38 | -0.316 | -0.0867 | inactive
ZFR2 (zinc finger RNA binding protein 2) | SID442889248 | -0.163 | 1.56 | 0.366 | inactive
ZFR2 (zinc finger RNA binding protein 2) | SID442893507 | -0.231 | 0.395 | -0.0375 | inactive
RPS11 (ribosomal protein S11) | SID442901338 | -1.1 | -1.85 | 0.303 | inactive
ZNF12 (zinc finger protein 12) | SID442899242 | -0.572 | -0.79 | -0.423 | inactive
FANCD2 (FA complementation group D2) | SID442897153 | -0.843 | 0.276 | -0.492 | inactive
TFDP2 (transcription factor Dp-2) | SID442885436 | 0.931 | 1.13 | 2.48 | inactive
STPG1 (sperm tail PG-rich repeat containing 1) | SID442884426 | -2.07 | -1.95 | -2.29 | active
GGCT (gamma-glutamylcyclotransferase) | SID442883957 | 2.68 | 1.98 | 1.7 | active
SMYD4 (SET and MYND domain containing 4) | SID442900999 | 0.00333 | -1.71 | -0.805 | inactive
RIPK1 (receptor interacting serine/threonine kinase 1) | SID442889106 | 1.05 | 0.415 | 0.374 | inactive
RBM45 (RNA binding motif protein 45) | SID442892331 | 0.417 | 0.254 | -0.129 | inactive

Reformatted: entries from further up.
RPS17P6 (ribosomal protein S17 pseudogene 6) [SID442890322] | robust z-score, replicate 1: -0.862; robust z-score, replicate 2: 1.24; robust z-score, replicate 3: 0.919; Outcome: inactive
LENG9 (leukocyte receptor cluster member 9) [SID442885414] | robust z-score, replicate 1: 1.15; robust z-score, replicate 2: 1.35; robust z-score, replicate 3: 2.06; Outcome: inactive
MRPL11 (mitochondrial ribosomal protein L11) [SID442891956] | robust z-score, replicate 1: 0.37; robust z-score, replicate 2: 0.145; robust z-score, replicate 3: 0.162; Outcome: inactive
ANKRD33 (ankyrin repeat domain 33) [SID442900172] | robust z-score, replicate 1: -0.699; robust z-score, replicate 2: -0.658; robust z-score, replicate 3: -0.813; Outcome: inactive
NBPF13P (NBPF member 13, pseudogene) [SID442896946] | robust z-score, replicate 1: -0.334; robust z-score, replicate 2: -0.45; robust z-score, replicate 3: -0.204; Outcome: inactive
UQCRB (ubiquinol-cytochrome c reductase binding protein) [SID442888223] | robust z-score, replicate 1: 0.813; robust z-score, replicate 2: 0.225; robust z-score, replicate 3: 1.25; Outcome: inactive
NRDE2 (NRDE-2, necessary for RNA interference, domain containing) [SID442891294] | robust z-score, replicate 1: -0.00922; robust z-score, replicate 2: -1.02; robust z-score, replicate 3: 1.94; Outcome: inactive
GK (glycerol kinase) [SID442887202] | robust z-score, replicate 1: 0.835; robust z-score, replicate 2: 0.696; robust z-score, replicate 3: 1.35; Outcome: inactive
